For 4 molecules, binding results are on record in article PMC9371351.

Protein sequences, listed by entry. Tags and fused reporters are not part of them.
UniProt F5HCV3: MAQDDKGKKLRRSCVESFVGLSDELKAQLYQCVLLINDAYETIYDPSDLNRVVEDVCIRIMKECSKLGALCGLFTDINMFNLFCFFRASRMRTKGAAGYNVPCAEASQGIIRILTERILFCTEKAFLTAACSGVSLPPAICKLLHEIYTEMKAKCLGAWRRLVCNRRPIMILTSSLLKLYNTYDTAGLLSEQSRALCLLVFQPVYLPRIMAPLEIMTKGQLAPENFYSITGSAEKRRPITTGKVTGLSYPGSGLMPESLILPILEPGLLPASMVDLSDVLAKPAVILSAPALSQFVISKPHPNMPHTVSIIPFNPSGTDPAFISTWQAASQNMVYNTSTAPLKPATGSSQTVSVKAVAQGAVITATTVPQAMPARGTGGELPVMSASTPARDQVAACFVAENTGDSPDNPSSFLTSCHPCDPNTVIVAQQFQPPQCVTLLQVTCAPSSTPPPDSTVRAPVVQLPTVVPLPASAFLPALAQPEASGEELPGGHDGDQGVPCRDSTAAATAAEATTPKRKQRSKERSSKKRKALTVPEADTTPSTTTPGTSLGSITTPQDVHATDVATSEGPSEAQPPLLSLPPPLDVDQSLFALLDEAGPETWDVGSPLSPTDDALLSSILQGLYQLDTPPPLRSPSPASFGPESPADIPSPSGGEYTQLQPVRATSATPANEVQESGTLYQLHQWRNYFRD
UniProt Q8IY18: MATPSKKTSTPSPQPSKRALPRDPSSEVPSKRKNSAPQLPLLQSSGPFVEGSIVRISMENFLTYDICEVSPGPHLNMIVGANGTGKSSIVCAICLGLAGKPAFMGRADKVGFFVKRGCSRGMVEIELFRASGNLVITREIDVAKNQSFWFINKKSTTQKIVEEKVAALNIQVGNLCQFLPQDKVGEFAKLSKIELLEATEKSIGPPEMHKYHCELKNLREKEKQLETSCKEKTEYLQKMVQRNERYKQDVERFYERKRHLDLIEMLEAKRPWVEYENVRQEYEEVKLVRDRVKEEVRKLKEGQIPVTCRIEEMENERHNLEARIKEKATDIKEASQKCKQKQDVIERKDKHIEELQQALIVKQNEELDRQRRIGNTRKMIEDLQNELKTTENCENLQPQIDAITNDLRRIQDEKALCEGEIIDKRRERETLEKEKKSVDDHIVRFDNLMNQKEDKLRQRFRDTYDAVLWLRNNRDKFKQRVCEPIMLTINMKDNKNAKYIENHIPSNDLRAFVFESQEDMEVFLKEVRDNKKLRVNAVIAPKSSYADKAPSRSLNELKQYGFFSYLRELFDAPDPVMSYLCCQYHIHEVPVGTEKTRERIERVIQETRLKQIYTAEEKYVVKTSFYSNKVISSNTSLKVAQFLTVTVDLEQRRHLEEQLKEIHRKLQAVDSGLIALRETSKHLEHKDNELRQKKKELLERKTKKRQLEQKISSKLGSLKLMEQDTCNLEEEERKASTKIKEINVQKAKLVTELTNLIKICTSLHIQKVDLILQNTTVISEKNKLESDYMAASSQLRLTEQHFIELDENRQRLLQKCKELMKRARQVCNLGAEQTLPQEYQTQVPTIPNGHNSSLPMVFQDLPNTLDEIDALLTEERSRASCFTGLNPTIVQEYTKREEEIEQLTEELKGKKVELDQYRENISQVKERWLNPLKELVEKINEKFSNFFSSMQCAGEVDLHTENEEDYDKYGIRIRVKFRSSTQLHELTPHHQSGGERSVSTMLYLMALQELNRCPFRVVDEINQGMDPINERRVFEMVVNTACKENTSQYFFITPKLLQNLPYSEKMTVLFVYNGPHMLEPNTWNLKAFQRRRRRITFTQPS

Results are given in words; binding and its absence hold for the method and conditions named. In cells and extracts the contact can be indirect. Some binding calls cover weakened binding; strength is not graded here.

Common to all, as to experiment: co-IP
In assay [1] the target is FLAG-RTA (KSHV replication and transcription activator, full-length) (KSHV) (UniProt F5HCV3).
Assay [2] addresses T1, endogenous SMC6 (human (endogenous in iSLK.RGB)) (UniProt Q96SB8).
T1 sequence: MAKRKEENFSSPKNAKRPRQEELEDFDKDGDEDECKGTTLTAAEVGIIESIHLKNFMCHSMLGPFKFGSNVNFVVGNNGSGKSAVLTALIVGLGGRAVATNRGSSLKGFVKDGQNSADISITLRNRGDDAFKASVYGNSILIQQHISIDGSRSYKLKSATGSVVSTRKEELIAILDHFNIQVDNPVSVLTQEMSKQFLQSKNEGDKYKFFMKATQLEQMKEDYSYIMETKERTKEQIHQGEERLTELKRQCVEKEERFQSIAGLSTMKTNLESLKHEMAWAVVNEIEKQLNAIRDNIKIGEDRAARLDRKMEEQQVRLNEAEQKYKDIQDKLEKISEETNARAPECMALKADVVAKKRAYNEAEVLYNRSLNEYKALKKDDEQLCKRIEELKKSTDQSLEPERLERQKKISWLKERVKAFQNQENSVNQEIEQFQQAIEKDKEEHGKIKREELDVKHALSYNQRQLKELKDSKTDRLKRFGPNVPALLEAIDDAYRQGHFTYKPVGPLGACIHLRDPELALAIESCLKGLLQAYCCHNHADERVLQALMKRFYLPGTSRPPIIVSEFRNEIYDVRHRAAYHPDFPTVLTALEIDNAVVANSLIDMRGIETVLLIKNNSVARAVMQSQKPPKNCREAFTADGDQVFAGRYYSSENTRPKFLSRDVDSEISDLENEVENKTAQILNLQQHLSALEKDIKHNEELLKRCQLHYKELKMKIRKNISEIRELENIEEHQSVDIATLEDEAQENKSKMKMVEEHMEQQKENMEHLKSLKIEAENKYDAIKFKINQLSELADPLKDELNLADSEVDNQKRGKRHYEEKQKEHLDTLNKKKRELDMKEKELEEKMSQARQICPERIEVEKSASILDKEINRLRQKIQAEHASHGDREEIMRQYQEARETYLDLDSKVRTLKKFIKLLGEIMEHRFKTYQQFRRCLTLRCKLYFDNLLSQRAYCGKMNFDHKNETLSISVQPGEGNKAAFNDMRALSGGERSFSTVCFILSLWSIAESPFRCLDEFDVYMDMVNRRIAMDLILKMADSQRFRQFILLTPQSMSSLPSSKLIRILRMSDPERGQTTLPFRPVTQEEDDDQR

Assay [3] deals with RTA expressed in Dox-induced iSLK.RGB cells (KSHV) (UniProt F5HCV3).

As to “HA-SMC5 (structural maintenance of chromosomes protein 5) (from UniProt Q8IY18 1-1101)”, the binding entry in assay [1] is on record as “binds”. Turning to “RTA expressed in Dox-induced iSLK.RGB cells (from UniProt F5HCV3 1-691)”, the binding result in assay [2] was “binds”. As for “endogenous SMC5 (from UniProt Q8IY18 1-1101)”, the binding entry in assay [3] is given as “binds”.

B1: endogenous SMC6 (protein, UniProt Q96SB8 1-1091)
chain: T1 sequence
With B1, in assay [3], the binding entry was “binds”.
